This is an account of results in the supplement of paper PMC12819154, “High-throughput peptide-centric local stability assay extends protein–ligand identification to membrane proteins, tissues and bacteria” (Nature Structural & Molecular Biology, 2025).

Amino acid sequences for entries named in this document (tags omitted). A change or cut given only in a name is not applied to a line headed by its entry.
UniProt Q6Q477: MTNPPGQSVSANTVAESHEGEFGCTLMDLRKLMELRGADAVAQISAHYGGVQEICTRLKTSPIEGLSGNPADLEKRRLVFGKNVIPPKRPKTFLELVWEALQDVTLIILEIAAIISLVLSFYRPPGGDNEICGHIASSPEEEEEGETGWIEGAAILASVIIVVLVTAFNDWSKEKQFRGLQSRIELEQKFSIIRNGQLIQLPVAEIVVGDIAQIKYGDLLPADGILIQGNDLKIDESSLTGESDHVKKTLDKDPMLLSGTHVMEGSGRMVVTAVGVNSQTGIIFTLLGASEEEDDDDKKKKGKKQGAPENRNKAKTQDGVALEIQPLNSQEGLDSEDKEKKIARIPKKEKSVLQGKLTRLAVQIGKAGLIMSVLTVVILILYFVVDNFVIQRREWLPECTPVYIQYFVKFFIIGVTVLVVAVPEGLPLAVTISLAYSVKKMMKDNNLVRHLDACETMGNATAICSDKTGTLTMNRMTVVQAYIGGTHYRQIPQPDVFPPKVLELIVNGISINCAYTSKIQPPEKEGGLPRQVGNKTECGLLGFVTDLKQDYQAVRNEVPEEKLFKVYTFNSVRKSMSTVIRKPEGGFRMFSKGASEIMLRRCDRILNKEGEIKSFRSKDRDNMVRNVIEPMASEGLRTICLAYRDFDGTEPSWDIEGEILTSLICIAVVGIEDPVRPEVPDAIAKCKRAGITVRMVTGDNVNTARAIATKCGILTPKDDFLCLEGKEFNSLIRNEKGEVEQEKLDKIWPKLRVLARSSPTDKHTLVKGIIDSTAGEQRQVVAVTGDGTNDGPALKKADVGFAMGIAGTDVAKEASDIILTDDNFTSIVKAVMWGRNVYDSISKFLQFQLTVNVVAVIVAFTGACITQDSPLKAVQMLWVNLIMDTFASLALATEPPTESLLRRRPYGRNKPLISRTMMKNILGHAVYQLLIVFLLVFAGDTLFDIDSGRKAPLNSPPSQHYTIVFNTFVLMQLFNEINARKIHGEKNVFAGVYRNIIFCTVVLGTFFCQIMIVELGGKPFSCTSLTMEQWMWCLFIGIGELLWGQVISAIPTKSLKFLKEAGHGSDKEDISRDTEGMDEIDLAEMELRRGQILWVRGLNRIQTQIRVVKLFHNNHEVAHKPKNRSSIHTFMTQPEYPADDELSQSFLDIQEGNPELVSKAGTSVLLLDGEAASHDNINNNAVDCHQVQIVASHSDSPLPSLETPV
UniProt Q6QWF9: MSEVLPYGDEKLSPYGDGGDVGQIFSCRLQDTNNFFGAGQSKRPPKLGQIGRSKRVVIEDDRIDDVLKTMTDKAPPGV
UniProt Q6SJQ5: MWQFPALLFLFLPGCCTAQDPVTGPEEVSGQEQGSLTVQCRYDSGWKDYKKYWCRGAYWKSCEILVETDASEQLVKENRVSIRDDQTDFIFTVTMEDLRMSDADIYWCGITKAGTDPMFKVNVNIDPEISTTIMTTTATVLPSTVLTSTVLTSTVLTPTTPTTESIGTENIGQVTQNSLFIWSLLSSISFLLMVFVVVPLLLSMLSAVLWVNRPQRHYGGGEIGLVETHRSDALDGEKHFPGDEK
UniProt Q69ZW3: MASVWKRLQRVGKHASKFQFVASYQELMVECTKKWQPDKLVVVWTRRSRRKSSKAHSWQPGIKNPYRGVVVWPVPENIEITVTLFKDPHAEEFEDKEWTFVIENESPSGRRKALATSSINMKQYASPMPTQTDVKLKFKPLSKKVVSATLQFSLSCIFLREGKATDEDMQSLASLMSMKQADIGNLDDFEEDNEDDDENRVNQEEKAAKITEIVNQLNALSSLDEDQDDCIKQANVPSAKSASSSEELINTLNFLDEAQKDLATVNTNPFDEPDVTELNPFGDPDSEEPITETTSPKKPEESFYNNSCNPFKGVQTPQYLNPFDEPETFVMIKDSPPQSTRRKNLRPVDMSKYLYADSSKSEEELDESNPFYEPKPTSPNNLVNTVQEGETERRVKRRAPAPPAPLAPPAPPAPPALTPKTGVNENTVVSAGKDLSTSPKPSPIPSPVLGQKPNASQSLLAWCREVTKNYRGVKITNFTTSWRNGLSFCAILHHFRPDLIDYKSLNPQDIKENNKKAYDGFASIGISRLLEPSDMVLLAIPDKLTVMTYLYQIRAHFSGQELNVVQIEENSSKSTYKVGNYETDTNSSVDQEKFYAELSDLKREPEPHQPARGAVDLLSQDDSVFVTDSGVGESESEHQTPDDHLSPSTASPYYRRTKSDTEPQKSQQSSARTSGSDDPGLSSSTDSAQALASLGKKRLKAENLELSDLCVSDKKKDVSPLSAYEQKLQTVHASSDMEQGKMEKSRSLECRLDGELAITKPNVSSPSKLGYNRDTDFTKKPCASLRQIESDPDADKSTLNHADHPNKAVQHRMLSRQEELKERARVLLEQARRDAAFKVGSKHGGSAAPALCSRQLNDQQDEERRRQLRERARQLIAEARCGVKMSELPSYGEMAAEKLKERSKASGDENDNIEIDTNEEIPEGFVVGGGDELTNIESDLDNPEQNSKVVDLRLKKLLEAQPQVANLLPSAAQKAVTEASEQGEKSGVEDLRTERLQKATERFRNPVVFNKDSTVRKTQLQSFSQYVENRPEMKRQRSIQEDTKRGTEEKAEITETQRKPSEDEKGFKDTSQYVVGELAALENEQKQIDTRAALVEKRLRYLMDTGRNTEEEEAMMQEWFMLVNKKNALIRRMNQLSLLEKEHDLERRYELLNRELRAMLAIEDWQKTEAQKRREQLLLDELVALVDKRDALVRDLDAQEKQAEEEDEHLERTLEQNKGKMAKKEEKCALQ
UniProt Q6GQS1: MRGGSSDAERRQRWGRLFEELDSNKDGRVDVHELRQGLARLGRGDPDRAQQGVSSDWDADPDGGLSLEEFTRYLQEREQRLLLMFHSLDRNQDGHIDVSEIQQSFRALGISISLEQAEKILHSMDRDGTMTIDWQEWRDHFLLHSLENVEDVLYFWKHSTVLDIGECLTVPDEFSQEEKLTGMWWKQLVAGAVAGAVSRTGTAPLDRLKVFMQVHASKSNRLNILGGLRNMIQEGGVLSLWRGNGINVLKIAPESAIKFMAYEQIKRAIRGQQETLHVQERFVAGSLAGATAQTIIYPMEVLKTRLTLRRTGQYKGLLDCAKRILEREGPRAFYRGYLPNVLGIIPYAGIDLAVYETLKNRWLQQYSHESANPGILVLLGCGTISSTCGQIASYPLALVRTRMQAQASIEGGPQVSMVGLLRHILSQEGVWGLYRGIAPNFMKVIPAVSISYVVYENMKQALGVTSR
UniProt Q69ZX6: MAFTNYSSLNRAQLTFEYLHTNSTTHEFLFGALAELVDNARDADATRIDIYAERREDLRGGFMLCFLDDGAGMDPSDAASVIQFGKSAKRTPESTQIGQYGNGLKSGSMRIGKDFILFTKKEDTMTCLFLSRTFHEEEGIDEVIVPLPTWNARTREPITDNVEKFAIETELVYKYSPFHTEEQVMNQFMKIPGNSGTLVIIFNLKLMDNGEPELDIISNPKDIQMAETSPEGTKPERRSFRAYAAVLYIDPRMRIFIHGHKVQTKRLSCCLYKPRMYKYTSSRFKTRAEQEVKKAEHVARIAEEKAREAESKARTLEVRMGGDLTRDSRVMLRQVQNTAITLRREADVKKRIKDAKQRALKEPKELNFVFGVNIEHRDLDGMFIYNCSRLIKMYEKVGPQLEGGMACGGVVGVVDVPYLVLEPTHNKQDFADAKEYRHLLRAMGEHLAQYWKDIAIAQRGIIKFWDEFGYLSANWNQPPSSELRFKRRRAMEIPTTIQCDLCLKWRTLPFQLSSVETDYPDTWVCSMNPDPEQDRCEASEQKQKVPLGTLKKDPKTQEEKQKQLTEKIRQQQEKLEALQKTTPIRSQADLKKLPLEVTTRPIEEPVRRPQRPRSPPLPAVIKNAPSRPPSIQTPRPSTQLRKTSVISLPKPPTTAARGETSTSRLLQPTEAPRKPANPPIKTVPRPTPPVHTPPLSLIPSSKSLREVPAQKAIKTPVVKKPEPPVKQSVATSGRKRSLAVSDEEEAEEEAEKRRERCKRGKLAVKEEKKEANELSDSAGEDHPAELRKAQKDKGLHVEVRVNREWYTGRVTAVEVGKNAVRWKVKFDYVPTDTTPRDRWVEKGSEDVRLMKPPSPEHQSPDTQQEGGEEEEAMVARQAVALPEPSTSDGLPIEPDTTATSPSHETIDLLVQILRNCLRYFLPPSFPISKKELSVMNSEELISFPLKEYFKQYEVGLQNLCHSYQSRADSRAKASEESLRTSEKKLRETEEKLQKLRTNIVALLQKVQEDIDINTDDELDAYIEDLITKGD
UniProt Q6P542: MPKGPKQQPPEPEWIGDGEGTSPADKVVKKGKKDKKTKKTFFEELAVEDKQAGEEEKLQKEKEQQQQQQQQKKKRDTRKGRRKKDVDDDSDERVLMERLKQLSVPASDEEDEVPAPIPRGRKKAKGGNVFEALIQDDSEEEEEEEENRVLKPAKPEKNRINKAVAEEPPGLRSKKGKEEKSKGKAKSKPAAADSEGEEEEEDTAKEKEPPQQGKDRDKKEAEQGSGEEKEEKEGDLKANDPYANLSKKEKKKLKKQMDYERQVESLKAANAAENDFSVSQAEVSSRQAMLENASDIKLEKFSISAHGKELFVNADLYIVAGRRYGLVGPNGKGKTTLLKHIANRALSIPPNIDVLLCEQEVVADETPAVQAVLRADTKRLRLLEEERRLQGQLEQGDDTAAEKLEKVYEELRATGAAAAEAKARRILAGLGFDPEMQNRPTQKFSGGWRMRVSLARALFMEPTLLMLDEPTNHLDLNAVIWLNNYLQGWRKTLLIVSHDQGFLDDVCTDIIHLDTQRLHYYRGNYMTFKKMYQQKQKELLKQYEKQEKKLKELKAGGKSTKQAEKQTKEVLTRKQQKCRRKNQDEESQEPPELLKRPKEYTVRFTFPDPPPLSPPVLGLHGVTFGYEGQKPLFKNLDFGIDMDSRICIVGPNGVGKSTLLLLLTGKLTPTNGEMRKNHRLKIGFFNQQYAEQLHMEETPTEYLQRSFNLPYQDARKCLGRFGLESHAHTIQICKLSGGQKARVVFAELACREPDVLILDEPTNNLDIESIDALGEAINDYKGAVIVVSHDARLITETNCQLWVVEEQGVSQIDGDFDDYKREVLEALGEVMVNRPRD
UniProt Q6A4J8: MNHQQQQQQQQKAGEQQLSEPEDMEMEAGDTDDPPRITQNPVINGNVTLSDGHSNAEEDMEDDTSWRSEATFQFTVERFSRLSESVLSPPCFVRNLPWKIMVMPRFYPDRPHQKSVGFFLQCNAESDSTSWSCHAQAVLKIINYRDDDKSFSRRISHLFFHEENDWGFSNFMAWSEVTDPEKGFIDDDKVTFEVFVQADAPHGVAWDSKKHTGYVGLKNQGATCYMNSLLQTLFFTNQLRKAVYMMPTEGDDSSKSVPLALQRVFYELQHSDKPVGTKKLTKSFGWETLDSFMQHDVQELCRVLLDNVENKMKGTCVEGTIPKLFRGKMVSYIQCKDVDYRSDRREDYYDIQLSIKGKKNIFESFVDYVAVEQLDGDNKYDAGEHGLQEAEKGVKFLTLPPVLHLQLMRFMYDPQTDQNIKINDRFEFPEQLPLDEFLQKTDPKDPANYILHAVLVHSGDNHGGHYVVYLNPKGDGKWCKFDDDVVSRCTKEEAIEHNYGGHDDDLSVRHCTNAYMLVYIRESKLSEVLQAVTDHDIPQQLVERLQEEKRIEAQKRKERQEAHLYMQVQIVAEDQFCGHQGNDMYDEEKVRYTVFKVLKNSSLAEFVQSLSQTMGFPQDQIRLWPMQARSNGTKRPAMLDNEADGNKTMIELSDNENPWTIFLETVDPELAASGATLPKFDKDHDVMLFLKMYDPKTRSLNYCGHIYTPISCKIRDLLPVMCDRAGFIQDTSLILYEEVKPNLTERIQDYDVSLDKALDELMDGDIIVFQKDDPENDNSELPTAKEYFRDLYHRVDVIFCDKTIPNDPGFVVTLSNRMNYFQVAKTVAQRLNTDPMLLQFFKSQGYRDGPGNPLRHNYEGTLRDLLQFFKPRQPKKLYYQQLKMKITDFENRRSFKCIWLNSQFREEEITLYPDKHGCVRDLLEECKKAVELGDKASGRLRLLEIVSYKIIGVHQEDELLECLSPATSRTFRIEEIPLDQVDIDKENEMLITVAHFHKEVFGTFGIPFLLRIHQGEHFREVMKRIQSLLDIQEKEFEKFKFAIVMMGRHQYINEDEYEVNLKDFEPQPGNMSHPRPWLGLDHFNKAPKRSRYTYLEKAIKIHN

Compound in this test: CN[C@@H]1C[C@H]2O[C@@](C)([C@@H]1OC)n1c3ccccc3c3c4c(c5c6ccccc6n2c5c31)C(=O)NC4 [staurosporine]
Description: log2 fold change of tryptic peptide abundance, ligand vs vehicle (limited proteolysis) (log2 ratio); higher = more trypsin-susceptible (destabilized). The following applies: ligand concentration: 20 uM; sample: mouse liver crude lysate; replicate design: treated separately.

The list shows a part of the results. Most entries show no effect beyond the scatter of the controls.

Turning to “UniProt Q6Q477 (peptide sequence: MVTGDNVNTAR, peptide start residue: 695)”, the log2 fold change came to 0.224.
For “UniProt Q6S5J6 (peptide sequence: NTASLNSR, peptide start residue: 19)” the value was 0.144; for “UniProt Q6PCM2 (peptide sequence: RPGEPSMQGIPK, peptide start residue: 643)”, -0.989; for “UniProt Q6A039 (peptide sequence: SGGFADFFAR, peptide start residue: 236)”, -0.143.
For “UniProt Q6QWF9 (peptide sequence: RVVIEDDRIDDVLK, peptide start residue: 55)” the value was 0.419; for “UniProt Q6SJQ5 (peptide sequence: HYGGGEIGLVETHR, peptide start residue: 217)”, -0.00151; for “UniProt Q6PGG6 (peptide sequence: NCIHVQK, peptide start residue: 315)”, -0.457.
Under “UniProt Q69ZW3 (peptide sequence: DTDFTKKPCASLR, peptide start residue: 774)” stands -0.229.
In the case of “UniProt Q6GQS1 (peptide sequence: QLVAGAVAGAVSR, peptide start residue: 187)”, the log2 fold change was -0.484.
With “UniProt Q69ZX6 (peptide sequence: KPANPPIK, peptide start residue: 674)”, the log2 fold change is -0.289.
Under “UniProt Q6P542 (peptide sequence: LTPTNGEMR, peptide start residue: 667)” stands 0.104.
For “UniProt Q6A4J8 (peptide sequence: HTGYVGLK, peptide start residue: 211)” the value was -0.503.
